Where “and” joins values, the source holds several entries; their conditions need not be identical. Equal entries are not always repeated. The whole screen tested about 580,000 compounds, of which about 6,100 (1.1%) were called active. This list was built around the results that the source calls inconclusive (neither active nor inactive); the mix of calls is not that of the screen. The call rests on the fitted dose curve; in most records, active means well fitted inhibition curve with a large enough effect; inconclusive means small, poorly fitted or top-dose-only effect, or another doubt; inactive means no such curve, though single readings can be large or run the other way. Potencies beside an inconclusive call are fits to weak or partial responses and may not hold up.
target: Polyunsaturated fatty acid lipoxygenase ALOX12 (Homo sapiens) (UniProt P18054); test: Primary qHTS assay for inhibitors of human arachidonate 12S-lipoxygenase (ALOX12): Round 2; conditions: purified 12hLO, xylenol orange hydroperoxide absorbance; activity change, negative = inhibition: at 108 µM (top of the series) unless noted
Outline: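 Purified human 12hLO at 150 nM in 25 mM Hepes, 0.01% Triton X-100, pH 7.0, preincubated 15 min at room temperature with compound. Reaction started with 40 uM arachidonic acid, 30 min at room temperature. Hydroperoxide measured by Fe-xylenol orange, 573/405 nm absorbance ratio.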
On the % scale 0 is the no-effect control and ±100 the full control effect; potency means the concentration at half of the fitted maximal effect.

By UniProt entry, the sequences of proteins in these tests, tags left out.
UniProt P18054, whole entry, looked up: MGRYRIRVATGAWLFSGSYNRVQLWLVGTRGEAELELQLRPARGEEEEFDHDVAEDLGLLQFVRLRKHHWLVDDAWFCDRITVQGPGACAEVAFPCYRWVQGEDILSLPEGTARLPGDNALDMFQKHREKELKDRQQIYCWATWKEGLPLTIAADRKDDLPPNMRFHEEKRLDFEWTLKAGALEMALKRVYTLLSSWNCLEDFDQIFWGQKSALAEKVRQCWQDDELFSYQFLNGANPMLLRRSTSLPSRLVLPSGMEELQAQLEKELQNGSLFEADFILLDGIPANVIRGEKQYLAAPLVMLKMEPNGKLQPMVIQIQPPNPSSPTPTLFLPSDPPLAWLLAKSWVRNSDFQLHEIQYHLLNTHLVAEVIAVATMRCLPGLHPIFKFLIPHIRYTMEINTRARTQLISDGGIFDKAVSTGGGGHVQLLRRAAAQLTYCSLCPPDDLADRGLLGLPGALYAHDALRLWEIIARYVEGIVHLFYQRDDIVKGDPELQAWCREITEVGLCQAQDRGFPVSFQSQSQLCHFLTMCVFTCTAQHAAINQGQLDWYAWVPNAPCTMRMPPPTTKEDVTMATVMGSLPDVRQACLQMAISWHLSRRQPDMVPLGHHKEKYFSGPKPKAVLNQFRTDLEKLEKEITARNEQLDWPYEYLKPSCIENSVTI

Compound	Potency	activity change, negative = inhibition
Cc1csc(N2CCCN(CC(=O)Nc3cc(C)on3)CC2)n1	inactive	
N#Cc1cccnc1NCCc1coc(-c2ccc(F)cc2)n1	inconclusive: 126 µM [inhibitor, partial curve, poor fit]	
COc1cccc(CC2(CO)CCCN(Cc3c(C)cc(C)cc3-n3cccn3)C2)c1 (stereo unspecified)	inactive	
CCCS(=O)(=O)N1CCN(CC2CC3C=CC2C3)CC1 (stereo unspecified)	inconclusive: 0.316 µM [inhibitor, full curve, poor fit]	
COc1ccc(-c2cccc(C(=O)Nc3ccc(OC)c(OC)c3)c2)cc1	inactive	
Cn1nc2c3ccccc3n(Cc3ccc(F)cc3)c2nc1=S	inconclusive: 100 µM [inhibitor, partial curve, poor fit]	
COc1ccc(C2=NN(C(=O)CSc3nc4ncc(Cl)cc4[nH]3)C(c3ccco3)C2)cc1 (stereo unspecified)	inconclusive: 44.7 µM [inhibitor, partial curve, poor fit]	
COc1ccc(C(=O)NC(=S)NNC(=O)c2cccc(C)c2)cc1	inconclusive: 35.5 µM [inhibitor, partial curve, poor fit]	
Oc1ccc(Cl)cc1CNC1CCCCC1	inconclusive: 79.4 µM [inhibitor, partial curve, poor fit]	
C=CCOC(=O)C1=C[C@@H](c2ccc3c(c2)OCO3)C[C@@H](OCc2ccc(CO)cc2)O1	inconclusive: 31.6 µM [inhibitor, partial curve]	
COC(=O)c1cccc(NCc2ccc(C(F)(F)F)cc2)c1	inconclusive: 0.891 µM [inhibitor, single point]	
CN1CCN(Cc2cc(COCc3ccccc3)c3cccnc3c2O)CC1	inactive	
CC1=CC(C)(C)NC(=S)N1c1ccc2ccccc2c1	inconclusive: 17.8 µM [inhibitor, partial curve, poor fit]	
O=S(=O)(c1cccc(-c2csc(-c3ccccc3)n2)c1)N1CCOCC1	inactive	
Cc1cc(N2CCC(N(C)C3CCCC3)CC2)nc2cc(O)ccc12	inconclusive: 44.7 µM [inhibitor, partial curve, poor fit]	
Cc1ccc(C(=O)NC2CCN(c3nc4ncccc4o3)CC2)cc1	inconclusive: 28.2 µM [inhibitor, single point]	
CCCCCCCCN1[C@@H](CC(C)=O)c2cc(C(F)(F)F)ccc2S1(=O)=O	inactive	
O=C(COc1ccc(Cl)cc1)N1CCN(S(=O)(=O)c2cc(F)ccc2F)CC1	inconclusive: 50.1 µM [inhibitor, partial curve, poor fit]	
CN(CCc1noc(C(=O)NCc2ccccc2)n1)C(=O)Nc1ccc(F)c(Cl)c1	inactive	
COC(=O)c1ccc(COc2ccc(C)c(C)c2)o1	inconclusive: 35.5 µM [inhibitor, partial curve, poor fit]	
OC(COCc1ccc(Cl)cc1)Cn1nnc(-c2cccc(Cl)c2)n1 (stereo unspecified)	inconclusive: 39.8 µM [inhibitor, single point]	
COc1ccccc1CNC(=O)CCc1ncc(-c2ccccc2F)o1	inconclusive: 100 µM [inhibitor, single point]	

Grouped by structure: the entries above with a halogen.
Compound	Potency	activity change, negative = inhibition
N#Cc1cccnc1NCCc1coc(-c2ccc(F)cc2)n1	inconclusive: 126 µM [inhibitor, partial curve, poor fit]	
Cn1nc2c3ccccc3n(Cc3ccc(F)cc3)c2nc1=S	inconclusive: 100 µM [inhibitor, partial curve, poor fit]	
COc1ccc(C2=NN(C(=O)CSc3nc4ncc(Cl)cc4[nH]3)C(c3ccco3)C2)cc1 (stereo unspecified)	inconclusive: 44.7 µM [inhibitor, partial curve, poor fit]	
Oc1ccc(Cl)cc1CNC1CCCCC1	inconclusive: 79.4 µM [inhibitor, partial curve, poor fit]	
COC(=O)c1cccc(NCc2ccc(C(F)(F)F)cc2)c1	inconclusive: 0.891 µM [inhibitor, single point]	
CCCCCCCCN1[C@@H](CC(C)=O)c2cc(C(F)(F)F)ccc2S1(=O)=O	inactive	
O=C(COc1ccc(Cl)cc1)N1CCN(S(=O)(=O)c2cc(F)ccc2F)CC1	inconclusive: 50.1 µM [inhibitor, partial curve, poor fit]	
CN(CCc1noc(C(=O)NCc2ccccc2)n1)C(=O)Nc1ccc(F)c(Cl)c1	inactive	
OC(COCc1ccc(Cl)cc1)Cn1nnc(-c2cccc(Cl)c2)n1 (stereo unspecified)	inconclusive: 39.8 µM [inhibitor, single point]	
COc1ccccc1CNC(=O)CCc1ncc(-c2ccccc2F)o1	inconclusive: 100 µM [inhibitor, single point]	

(list continues)

Compound	Potency	activity change, negative = inhibition
Nc1cc(N)nc(SCc2ccc(C(F)(F)F)cc2)n1	inactive	
O=C(c1c(Cl)cccc1Cl)N1CCN(c2ccccn2)CC1	inactive	
COCCn1cc(C(=O)NC2CCCc3c2[nH]c2c(Cl)cccc32)c2ccccc2c1=O (stereo unspecified)	inactive	
CCOC(=O)c1c(/N=C/C2=C(O)CCCC2=O)sc(C)c1C	inactive	
O=S(=O)(O)Sc1ccccc1	inconclusive: 50.1 µM [inhibitor, partial curve, poor fit]	
CC(C)(C)c1nnc2sc(-c3c[nH]c4ccccc34)nn12	inconclusive: 31.6 µM [inhibitor, single point]	
CCOC(=O)c1c(Nc2ccc(OC)cc2)nnc(-c2ccccc2)c1-c1ccccc1	inconclusive: 2.24 µM [inhibitor, full curve, poor fit]	
CCn1ncc(-c2cc(C(=O)O)no2)c1C	inconclusive: 89.1 µM [inhibitor, single point]	
Cc1cc(OCC(=O)Nc2sc3c(c2C(=O)N2CCOCC2)CCCC3)ccc1Cl	inactive	
CSc1cc(C)c(OCC(=O)Nc2c(C)nn(C)c2C)c(C)c1	inactive	
CCOc1ccc(C(=O)NCCN2CCCCC2)c(OCC)c1	inconclusive: 35.5 µM [inhibitor, partial curve, poor fit]	
Cc1ccc(CN2C(=O)[C@@H]3Cc4c([nH]c5ccccc45)C(C)(C)N3C2=O)cc1	inconclusive: 70.8 µM [inhibitor, partial curve, poor fit]	
CCSC1=C(C#N)C(c2ccc(C)cc2)C2=C(CCCC2=O)N1 (stereo unspecified)	inconclusive: 50.1 µM [inhibitor, single point]	
CSc1ncccc1C(=O)OCC(=O)c1ccc(Br)s1	inactive	
CC(C)NC(=O)c1onc(CSc2cccc3ccccc23)c1C(=O)O	inconclusive: 79.4 µM [inhibitor, partial curve, poor fit]	
O=C(O)Cn1c(O)c(C=Nc2ccccc2)sc1=S	inactive and inconclusive: 1.12 µM [inhibitor, full curve, poor fit]	
CN(Cc1nc(-c2ccncc2)no1)C1CCC2(CCNCC2)CC1	inconclusive: 3.55 µM [inhibitor, full curve]	
CCOCCCn1cc(C(=O)c2cc(Br)ccc2O)cc(C#N)c1=O	inconclusive: 50.1 µM [inhibitor, partial curve, poor fit]	
CC(N)(C(=O)O)c1ccccc1 (stereo unspecified)	inconclusive: 3.55 µM [inhibitor, full curve, poor fit]	
CC1CCC2C(=O)N(c3ccc(Cc4ccncc4)cc3)C(=O)C2C1 (stereo unspecified)	inactive	
Cc1onc(-c2ccccc2)c1C(=O)NC(=S)NNC(=O)c1ccccc1O	inconclusive: 35.5 µM [inhibitor, partial curve]	
COC(=O)c1cc(-c2ccc(F)cc2)nc2onc(-c3ccccc3)c12	inconclusive: 35.5 µM [inhibitor, partial curve, poor fit]	

Compound	Potency	activity change, negative = inhibition
CCC(=O)NC(=S)Nc1ccc(NC(=S)NC(=O)c2ccccc2)cc1	inconclusive: 11.2 µM [inhibitor, partial curve, poor fit]	
Fc1ccc(NN=C2c3ccccc3-c3ccccc32)c(F)c1	inconclusive: 141 µM [inhibitor, single point]	
Cc1cccc(CN(CC(=O)N/N=C/c2ccco2)S(=O)(=O)c2ccc(Cl)cc2)c1	inconclusive: 22.4 µM [inhibitor, partial curve, poor fit]	
Nc1cc(Cl)cc2c1-c1ccc(Cl)cc1C2O (stereo unspecified)	inconclusive: 89.1 µM [inhibitor, partial curve, poor fit]	
CCCn1c(SCC(=O)Nc2cccc(C)n2)nc2c1c(=O)n(C)c(=O)n2C		inconclusive: -32% [inhibitor]
COc1ccc(-c2csc(=Nc3ccccc3)n2CCO)cc1F	inconclusive: 56.2 µM [inhibitor, partial curve, poor fit]	
O=C(N/N=C/C=C/c1ccco1)c1cccs1	inconclusive: 44.7 µM [inhibitor, partial curve, poor fit]	
CC1CCCN(c2nc3ccccc3nc2C(C#N)S(=O)(=O)c2cccs2)C1 (stereo unspecified)	inconclusive: 3.98 µM [inhibitor, full curve, poor fit]	
Cc1cccc(NC(=O)Cn2ccn3nc(-c4ccccc4)c(CO)c3c2=O)c1C	inconclusive: 31.6 µM [inhibitor, partial curve, poor fit]	
O=S1(=O)CC(N2CC=CC2)CN1Cc1ccccc1 (stereo unspecified)	inconclusive: 17.8 µM [inhibitor, partial curve, poor fit]	
CCc1cccc(NC(=O)C2CC2c2ccccc2)c1 (stereo unspecified)	inconclusive: 89.1 µM [inhibitor, single point]	
Cn1nnc(NC(=O)CSc2nnnn2-c2ccc(F)cc2)n1	inconclusive: 3.98 µM [inhibitor, full curve, poor fit]	
COc1ccnc(N2CCN(CC3(O)CCCNC3)CC2)n1 (stereo unspecified)	inconclusive: 12.6 µM [inhibitor, partial curve]	
COc1ccc2c(c1)CCC/C2=N\OC(=O)c1cc(Cl)ccc1SC	inconclusive: 79.4 µM [inhibitor, partial curve, poor fit]	
N#C/C(=N\Nc1ccc(S(=O)(=O)N2CCOCC2)cc1)C(N)=S	inconclusive: 112 µM [inhibitor, single point]	
COc1cc(C)c(C(=O)Oc2cc(C)c(C(=O)O)c(O)c2C)c(O)c1C	inconclusive: 100 µM [inhibitor, single point] and inconclusive: 56.2 µM [inhibitor, partial curve, poor fit]	
O=C(NC(=S)NC1CCCc2ccccc21)c1ccc(F)cc1 (stereo unspecified)	active: 17.8 µM	
CC(C)OCCCNC(=O)C(=O)N/N=C/c1ccc(OCc2ccccc2)cc1	inconclusive: 79.4 µM [inhibitor, single point]	
Cc1ccc(S(=O)(=O)Nc2ccc(SC(F)F)cc2)c(C)c1	active: 15.8 µM	
O/N=C/c1cccc(Oc2ccccc2)c1	inconclusive: 141 µM [inhibitor, single point]	
Cn1c(-c2ccccc2)c(C(=O)COC(=O)COc2cccc3c2OC(C)(C)C3)c2ccccc21	inconclusive: 126 µM [inhibitor, single point]	
CCCOc1ccc(-c2nc(SCC(=O)c3ccc(Cl)cc3)n[nH]2)cc1	inconclusive: 56.2 µM [inhibitor, partial curve, poor fit]	

— PubChem BioAssay AID1671190 (National Center for Advancing Translational Sciences (NCATS), 2021)
